In PMC6191541, “Small-Molecule Acetylation Controls the Degradation of Benzoate and Photosynthesis in Rhodopseudomonas palustris” (mBio, 2018):
For at least one entry, the source does not settle the construct or the ends of the probe. Weaker means in comparison with the reference protein, sequence or condition of that experiment. Where a protein sequence is shown, tags need not be part of it.

Molecular target: T1, BadM (Rhodopseudomonas palustris) (UniProt O07465)
T1 sequence (looked up, limits assumed): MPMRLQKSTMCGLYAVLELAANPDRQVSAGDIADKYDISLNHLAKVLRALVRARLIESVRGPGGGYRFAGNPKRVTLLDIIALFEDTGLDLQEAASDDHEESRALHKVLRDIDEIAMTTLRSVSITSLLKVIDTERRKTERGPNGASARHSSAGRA
Experiment: EMSA
Conditions: lesser effect than 2-acetamidobenzoate, poor solubility, 25 µL, Tris 20 mM pH 7.5 (at 25°C), KCl 50 mM, DTT 1 mM, probe 12 nM (0.303 pmol), BadM 72 nM (1.8 pmol), recombinant protein, label: 6-FAM (text and Methods: 3' end, legends: 5'), probe letters rebuilt from the primers and the genome

Q: Does “GTGATGCGGCCTGTCGAGCATGCCGGTCGTCCTCCCTGCCCGGCGGCTCTGCCGGGTCGCGCTGCCGGCCATTTTCCGGCCCAGCGATTTAAATGTAATCTAGTATCGGAATGCGATAATTAATTTGATGCGGATCAAATTTGGCAAAGGCACAGCCGACACGGGCCGACGCCGGCTCGTAGTCGGGAGGCTCAGATATCGATCGCGATCTT (double strand) [badDEFGAB promoter / badCD intergenic probe]” bind (3-acetamidobenzoate)?
A: binds more weakly

Q: Does “GTGATGCGGCCTGTCGAGCATGCCGGTCGTCCTCCCTGCCCGGCGGCTCTGCCGGGTCGCGCTGCCGGCCATTTTCCGGCCCAGCGATTTAAATGTAATCTAGTATCGGAATGCGATAATTAATTTGATGCGGATCAAATTTGGCAAAGGCACAGCCGACACGGGCCGACGCCGGCTCGTAGTCGGGAGGCTCAGATATCGATCGCGATCTT (double strand) [badDEFGAB promoter / badCD intergenic probe]” bind (4-acetamidobenzoate)?
A: binds more weakly
